# At least one structure is not confirmed: it was looked up by name or label, or the drawing left a doubt.
# Test system: nitric oxide (NO) production by BAL macrophages
# Format: in vivo, Brown Norway rats
# Details: compared to asthmatic and naïve rats, p<0.001; macrophages cultured without further treatment
smiles,measurement,value
"C[C@@H]1C[C@H]2[C@@H]3CCC4=CC(=O)C=C[C@]4(C)[C@@]3(F)[C@@H](O)C[C@]2(C)[C@@]1(O)C(=O)CO [Dx, dexamethasone, reference compound]","NO level, BAL macrophages",reduced
